Measured values reported in PMC12065020.
These are yes or no findings as the source states them, for the method shown. Binding seen in cells or lysates may run through a third protein. A yes stands for co-enrichment or nearness to the bait. Other partners may have been found.

Protein sequences, listed by entry. Tags and fused reporters are not part of them.
UniProt P08670: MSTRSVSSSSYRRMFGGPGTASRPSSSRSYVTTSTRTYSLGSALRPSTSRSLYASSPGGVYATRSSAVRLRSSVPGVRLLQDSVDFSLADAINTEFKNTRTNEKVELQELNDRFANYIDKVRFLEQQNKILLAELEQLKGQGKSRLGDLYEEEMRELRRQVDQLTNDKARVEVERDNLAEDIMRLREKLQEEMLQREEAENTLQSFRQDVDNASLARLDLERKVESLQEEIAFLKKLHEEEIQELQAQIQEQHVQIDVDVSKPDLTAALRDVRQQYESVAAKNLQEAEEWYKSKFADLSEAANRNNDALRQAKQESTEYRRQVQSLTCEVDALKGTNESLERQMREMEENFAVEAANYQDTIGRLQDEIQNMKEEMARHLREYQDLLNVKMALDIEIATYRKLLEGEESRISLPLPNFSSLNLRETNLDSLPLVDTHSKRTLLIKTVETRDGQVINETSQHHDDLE
UniProt P07355: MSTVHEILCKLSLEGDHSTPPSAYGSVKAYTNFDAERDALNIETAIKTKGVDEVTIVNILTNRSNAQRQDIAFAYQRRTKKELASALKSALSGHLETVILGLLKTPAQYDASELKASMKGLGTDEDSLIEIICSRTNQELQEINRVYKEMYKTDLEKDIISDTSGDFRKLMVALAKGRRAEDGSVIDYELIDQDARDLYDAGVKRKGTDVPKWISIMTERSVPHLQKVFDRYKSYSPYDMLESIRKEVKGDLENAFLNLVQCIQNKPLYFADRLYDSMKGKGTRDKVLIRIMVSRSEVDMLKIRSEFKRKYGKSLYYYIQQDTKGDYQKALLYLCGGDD
UniProt P23528: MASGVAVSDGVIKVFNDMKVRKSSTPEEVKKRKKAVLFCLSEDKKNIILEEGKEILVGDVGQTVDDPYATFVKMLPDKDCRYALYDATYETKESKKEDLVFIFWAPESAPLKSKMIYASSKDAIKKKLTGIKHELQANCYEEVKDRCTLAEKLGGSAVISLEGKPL
UniProt P15311: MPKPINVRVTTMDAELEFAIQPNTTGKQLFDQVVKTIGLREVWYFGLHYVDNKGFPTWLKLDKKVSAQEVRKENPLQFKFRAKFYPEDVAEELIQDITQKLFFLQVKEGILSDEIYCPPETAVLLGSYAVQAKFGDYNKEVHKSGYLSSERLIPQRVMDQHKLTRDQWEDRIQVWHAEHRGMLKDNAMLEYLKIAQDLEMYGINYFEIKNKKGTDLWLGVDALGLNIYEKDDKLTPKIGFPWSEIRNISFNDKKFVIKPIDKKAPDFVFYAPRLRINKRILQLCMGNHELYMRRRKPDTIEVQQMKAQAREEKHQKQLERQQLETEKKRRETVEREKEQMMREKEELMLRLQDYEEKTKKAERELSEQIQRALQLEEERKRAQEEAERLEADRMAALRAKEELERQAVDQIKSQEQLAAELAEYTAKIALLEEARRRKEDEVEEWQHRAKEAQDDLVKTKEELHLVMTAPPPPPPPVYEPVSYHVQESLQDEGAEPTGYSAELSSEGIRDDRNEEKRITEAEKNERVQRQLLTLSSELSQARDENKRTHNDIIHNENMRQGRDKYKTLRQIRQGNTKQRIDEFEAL
UniProt P26038: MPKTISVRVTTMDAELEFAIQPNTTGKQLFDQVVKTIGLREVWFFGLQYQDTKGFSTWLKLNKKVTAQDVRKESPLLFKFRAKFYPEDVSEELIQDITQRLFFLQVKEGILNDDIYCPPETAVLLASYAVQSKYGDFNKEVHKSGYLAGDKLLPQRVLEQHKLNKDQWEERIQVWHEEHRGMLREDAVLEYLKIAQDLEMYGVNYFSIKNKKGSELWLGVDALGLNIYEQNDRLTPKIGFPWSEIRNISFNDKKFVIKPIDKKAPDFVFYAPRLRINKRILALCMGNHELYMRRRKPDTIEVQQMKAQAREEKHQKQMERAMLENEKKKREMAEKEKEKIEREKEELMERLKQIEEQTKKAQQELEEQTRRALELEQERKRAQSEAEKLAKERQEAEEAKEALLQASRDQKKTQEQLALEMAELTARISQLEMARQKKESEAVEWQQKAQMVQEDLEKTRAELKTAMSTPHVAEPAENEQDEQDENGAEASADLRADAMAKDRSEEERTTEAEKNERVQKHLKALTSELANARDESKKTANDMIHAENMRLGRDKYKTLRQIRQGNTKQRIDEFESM
UniProt P35579: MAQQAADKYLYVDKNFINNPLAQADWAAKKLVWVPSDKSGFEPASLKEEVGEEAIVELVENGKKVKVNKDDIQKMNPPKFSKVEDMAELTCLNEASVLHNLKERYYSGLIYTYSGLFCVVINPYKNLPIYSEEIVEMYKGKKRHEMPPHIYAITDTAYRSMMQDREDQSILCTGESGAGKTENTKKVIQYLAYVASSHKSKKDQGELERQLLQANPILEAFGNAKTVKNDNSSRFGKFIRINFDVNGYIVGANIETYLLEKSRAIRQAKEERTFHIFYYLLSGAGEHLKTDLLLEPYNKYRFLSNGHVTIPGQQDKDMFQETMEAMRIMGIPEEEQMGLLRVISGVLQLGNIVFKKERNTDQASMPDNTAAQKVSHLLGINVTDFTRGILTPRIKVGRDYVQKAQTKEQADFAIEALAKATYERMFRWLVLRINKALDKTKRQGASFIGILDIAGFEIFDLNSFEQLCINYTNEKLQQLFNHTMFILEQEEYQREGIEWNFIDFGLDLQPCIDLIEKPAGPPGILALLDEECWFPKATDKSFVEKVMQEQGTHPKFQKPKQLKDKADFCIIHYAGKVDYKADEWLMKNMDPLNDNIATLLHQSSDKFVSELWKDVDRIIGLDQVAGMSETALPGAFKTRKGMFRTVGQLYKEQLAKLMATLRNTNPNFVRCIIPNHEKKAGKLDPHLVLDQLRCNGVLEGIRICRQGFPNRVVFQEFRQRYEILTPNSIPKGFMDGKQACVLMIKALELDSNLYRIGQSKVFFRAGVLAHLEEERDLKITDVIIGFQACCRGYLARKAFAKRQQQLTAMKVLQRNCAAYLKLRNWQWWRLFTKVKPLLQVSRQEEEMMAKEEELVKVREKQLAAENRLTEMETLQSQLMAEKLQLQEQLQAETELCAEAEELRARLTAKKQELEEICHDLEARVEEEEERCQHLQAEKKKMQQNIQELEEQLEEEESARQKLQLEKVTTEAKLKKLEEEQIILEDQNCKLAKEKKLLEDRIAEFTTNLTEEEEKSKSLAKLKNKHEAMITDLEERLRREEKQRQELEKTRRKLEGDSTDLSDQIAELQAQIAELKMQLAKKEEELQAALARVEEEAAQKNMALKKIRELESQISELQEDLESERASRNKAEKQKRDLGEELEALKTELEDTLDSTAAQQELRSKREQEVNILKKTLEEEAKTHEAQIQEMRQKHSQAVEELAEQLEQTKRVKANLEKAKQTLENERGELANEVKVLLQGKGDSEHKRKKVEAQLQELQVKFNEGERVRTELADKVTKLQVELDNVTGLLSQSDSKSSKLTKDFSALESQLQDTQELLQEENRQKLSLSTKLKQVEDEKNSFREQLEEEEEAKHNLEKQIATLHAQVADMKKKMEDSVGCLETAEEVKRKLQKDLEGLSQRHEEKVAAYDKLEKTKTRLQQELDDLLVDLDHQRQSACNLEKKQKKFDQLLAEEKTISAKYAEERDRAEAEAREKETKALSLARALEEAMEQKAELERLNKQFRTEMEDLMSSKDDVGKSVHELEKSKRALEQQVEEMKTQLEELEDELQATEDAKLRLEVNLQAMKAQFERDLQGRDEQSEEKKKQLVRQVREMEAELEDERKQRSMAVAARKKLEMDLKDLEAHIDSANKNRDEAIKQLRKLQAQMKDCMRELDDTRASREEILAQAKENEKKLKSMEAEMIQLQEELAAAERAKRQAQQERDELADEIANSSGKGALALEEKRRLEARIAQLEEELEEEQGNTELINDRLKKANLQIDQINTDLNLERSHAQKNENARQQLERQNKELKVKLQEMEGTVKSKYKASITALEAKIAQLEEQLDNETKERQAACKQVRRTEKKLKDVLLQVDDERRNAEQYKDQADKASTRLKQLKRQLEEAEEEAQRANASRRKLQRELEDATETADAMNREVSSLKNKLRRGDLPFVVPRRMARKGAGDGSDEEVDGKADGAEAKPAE
UniProt P26447: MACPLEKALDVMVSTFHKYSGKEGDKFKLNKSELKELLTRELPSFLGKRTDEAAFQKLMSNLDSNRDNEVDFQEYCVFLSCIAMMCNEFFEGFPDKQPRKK
UniProt P60903: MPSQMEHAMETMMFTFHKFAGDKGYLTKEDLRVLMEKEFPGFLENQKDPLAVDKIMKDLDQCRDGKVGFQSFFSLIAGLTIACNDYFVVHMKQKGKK

What follows are substances tested against Vimentin (human (endogenous in hGF)) (UniProt P08670) (assay: affinity purification with mass spectrometry; vimentin immunoprecipitated from hGF lysates with vimentin antibody on Protein A Dynabeads; pre-immune serum beads subtracted; four replicated experiments).

Row | binding | Substance
1 | binds | Annexin A2 (from UniProt P07355 1-339)
2 | binds | Cofilin-1 (from UniProt P23528 1-166)
3 | binds | Ezrin (from UniProt P15311 1-586)
4 | binds | Moesin (from UniProt P26038 1-577)
5 | binds | Myosin-9 (from UniProt P35579 1-1960)
6 | binds | Protein S100-A4 (from UniProt P26447 1-101)
7 | binds | Protein S100-A10 (from UniProt P60903 1-97)
